This is one part of the list.

Protein sequences, listed by entry. Tags and fused reporters are not part of them. Lines headed by an entry give the natural chain unless they say otherwise; changes in a name come on top.
UniProt Q9BY77: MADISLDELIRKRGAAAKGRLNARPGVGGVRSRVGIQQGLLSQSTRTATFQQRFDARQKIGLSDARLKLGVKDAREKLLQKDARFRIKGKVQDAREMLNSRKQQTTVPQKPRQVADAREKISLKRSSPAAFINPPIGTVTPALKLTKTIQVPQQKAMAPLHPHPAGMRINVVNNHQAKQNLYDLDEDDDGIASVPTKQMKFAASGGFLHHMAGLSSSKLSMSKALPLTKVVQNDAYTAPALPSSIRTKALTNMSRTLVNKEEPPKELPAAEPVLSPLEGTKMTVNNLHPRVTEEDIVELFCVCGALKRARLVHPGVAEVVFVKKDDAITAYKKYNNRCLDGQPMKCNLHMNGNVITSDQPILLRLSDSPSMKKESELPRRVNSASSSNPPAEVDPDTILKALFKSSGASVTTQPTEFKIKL
UniProt P16435: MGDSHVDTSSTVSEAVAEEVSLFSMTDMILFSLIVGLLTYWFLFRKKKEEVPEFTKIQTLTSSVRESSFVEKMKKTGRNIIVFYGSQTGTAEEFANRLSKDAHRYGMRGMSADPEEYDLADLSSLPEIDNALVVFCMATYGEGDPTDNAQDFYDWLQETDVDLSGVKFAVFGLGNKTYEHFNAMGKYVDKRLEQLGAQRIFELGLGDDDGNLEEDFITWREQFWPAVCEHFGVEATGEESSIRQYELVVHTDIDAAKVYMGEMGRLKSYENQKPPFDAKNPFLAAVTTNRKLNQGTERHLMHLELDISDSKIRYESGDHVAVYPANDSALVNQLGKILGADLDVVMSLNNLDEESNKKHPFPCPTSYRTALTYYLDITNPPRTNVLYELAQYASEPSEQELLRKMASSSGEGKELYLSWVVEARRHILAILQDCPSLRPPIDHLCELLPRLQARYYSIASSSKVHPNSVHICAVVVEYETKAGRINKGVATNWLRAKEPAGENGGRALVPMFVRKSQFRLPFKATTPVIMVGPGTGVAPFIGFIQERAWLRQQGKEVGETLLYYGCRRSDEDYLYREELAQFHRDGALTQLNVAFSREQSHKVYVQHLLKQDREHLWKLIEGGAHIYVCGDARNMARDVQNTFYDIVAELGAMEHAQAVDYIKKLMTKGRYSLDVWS
UniProt Q9NW08: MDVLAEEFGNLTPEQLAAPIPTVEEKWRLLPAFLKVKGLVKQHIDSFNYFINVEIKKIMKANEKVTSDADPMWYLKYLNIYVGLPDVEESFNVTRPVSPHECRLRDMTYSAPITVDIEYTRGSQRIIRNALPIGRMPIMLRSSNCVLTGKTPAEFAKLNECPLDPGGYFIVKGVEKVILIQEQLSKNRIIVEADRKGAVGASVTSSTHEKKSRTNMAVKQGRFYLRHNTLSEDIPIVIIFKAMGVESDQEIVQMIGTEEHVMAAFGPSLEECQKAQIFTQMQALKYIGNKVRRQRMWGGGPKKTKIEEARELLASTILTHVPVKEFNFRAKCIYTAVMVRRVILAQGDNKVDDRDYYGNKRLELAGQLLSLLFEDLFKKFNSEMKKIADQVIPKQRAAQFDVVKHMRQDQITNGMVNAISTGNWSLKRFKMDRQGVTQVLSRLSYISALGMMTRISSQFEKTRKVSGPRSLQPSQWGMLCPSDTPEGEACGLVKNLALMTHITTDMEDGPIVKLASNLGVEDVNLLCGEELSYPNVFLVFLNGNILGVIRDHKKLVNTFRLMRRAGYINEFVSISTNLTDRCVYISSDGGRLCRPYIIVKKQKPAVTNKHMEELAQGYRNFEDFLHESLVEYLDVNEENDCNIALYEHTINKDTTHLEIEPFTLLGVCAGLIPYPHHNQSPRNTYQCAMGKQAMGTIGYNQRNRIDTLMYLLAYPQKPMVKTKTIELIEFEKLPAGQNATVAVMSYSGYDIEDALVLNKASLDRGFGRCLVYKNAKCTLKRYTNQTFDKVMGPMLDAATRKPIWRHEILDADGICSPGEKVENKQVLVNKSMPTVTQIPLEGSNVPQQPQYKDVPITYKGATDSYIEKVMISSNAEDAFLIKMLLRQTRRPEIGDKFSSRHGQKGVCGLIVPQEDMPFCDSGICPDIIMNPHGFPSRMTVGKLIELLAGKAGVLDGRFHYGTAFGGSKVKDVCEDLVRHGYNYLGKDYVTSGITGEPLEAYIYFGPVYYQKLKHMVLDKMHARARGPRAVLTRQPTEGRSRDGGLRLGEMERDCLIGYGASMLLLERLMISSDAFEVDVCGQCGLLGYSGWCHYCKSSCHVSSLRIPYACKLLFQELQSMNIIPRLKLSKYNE
UniProt Q15181: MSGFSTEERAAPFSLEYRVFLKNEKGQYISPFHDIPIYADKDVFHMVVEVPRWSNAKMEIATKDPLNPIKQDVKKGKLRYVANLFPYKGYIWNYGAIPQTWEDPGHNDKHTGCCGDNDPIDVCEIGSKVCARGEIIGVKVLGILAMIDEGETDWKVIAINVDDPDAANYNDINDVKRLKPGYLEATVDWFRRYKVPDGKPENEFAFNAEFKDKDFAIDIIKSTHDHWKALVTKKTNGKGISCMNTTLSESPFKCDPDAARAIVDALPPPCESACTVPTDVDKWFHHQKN
UniProt Q07864, whole entry, looked up: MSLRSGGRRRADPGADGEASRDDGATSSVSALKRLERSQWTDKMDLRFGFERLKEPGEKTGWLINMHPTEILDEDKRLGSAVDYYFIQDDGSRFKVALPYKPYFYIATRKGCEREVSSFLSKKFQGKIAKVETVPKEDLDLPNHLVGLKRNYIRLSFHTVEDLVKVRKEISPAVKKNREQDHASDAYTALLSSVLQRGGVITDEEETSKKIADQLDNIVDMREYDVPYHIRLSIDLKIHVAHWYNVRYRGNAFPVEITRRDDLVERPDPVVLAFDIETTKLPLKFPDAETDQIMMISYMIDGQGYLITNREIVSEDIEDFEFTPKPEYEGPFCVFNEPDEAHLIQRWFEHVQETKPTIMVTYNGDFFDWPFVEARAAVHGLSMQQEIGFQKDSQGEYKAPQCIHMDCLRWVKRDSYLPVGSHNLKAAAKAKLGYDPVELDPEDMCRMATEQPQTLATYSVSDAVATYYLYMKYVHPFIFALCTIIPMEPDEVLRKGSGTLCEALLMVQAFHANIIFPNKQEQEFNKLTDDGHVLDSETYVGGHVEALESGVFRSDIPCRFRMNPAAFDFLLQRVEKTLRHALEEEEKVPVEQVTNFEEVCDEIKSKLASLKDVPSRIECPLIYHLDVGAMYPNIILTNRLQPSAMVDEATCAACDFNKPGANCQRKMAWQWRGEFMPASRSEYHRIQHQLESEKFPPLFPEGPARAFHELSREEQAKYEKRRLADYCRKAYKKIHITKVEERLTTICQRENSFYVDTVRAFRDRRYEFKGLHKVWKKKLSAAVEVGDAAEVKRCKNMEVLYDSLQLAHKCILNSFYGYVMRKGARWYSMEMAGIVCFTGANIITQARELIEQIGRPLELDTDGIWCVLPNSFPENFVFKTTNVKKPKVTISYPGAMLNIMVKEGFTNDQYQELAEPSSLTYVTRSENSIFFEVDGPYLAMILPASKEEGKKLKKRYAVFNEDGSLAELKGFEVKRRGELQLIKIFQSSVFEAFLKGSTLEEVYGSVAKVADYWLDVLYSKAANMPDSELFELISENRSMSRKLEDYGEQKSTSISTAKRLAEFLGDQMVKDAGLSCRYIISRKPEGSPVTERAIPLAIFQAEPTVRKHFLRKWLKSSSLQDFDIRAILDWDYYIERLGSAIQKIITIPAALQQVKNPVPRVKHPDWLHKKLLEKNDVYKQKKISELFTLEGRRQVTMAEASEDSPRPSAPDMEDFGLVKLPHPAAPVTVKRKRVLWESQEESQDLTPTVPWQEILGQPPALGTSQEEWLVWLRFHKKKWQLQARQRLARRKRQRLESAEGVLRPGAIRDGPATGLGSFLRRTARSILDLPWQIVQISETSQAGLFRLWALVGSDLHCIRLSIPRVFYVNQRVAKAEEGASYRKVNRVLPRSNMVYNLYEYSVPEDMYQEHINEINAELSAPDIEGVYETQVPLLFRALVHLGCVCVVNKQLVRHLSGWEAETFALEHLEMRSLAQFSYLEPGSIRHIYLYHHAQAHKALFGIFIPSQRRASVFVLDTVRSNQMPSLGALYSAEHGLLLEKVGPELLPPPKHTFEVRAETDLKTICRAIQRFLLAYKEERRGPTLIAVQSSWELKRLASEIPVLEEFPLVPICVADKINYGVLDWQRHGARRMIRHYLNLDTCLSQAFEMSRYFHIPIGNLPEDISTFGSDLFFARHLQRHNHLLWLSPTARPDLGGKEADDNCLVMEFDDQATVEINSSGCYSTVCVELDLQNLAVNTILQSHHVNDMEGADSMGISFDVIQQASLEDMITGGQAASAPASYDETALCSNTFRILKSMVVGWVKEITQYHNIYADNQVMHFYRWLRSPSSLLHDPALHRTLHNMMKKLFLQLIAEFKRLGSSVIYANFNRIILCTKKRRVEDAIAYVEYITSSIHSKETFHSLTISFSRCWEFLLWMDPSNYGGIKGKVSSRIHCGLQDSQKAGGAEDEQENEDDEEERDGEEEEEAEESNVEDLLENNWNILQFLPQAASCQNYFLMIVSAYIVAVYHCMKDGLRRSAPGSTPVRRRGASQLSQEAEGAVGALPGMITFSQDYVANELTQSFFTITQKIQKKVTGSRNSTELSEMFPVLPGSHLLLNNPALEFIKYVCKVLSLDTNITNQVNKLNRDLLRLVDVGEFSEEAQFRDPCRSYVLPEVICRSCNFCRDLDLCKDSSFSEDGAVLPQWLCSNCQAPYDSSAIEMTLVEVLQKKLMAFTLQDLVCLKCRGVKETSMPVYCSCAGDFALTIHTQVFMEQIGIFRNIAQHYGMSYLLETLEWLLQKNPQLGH
UniProt Q8WZA1: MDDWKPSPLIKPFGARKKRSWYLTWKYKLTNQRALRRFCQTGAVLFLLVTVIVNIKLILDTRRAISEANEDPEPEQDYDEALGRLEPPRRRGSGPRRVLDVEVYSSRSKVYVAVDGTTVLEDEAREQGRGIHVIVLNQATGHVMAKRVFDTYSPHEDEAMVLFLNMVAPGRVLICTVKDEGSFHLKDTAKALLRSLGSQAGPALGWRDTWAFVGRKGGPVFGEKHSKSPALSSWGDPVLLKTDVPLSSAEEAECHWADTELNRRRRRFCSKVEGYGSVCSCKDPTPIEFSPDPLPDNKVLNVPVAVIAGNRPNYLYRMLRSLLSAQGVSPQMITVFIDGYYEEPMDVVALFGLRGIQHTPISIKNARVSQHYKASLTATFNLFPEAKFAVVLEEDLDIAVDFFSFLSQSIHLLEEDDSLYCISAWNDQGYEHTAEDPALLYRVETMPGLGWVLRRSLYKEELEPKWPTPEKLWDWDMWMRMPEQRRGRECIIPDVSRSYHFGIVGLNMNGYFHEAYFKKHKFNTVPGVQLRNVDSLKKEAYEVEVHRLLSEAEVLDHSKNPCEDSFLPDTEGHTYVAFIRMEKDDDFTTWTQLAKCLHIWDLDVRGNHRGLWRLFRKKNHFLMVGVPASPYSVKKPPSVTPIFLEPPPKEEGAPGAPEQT
UniProt Q86W92: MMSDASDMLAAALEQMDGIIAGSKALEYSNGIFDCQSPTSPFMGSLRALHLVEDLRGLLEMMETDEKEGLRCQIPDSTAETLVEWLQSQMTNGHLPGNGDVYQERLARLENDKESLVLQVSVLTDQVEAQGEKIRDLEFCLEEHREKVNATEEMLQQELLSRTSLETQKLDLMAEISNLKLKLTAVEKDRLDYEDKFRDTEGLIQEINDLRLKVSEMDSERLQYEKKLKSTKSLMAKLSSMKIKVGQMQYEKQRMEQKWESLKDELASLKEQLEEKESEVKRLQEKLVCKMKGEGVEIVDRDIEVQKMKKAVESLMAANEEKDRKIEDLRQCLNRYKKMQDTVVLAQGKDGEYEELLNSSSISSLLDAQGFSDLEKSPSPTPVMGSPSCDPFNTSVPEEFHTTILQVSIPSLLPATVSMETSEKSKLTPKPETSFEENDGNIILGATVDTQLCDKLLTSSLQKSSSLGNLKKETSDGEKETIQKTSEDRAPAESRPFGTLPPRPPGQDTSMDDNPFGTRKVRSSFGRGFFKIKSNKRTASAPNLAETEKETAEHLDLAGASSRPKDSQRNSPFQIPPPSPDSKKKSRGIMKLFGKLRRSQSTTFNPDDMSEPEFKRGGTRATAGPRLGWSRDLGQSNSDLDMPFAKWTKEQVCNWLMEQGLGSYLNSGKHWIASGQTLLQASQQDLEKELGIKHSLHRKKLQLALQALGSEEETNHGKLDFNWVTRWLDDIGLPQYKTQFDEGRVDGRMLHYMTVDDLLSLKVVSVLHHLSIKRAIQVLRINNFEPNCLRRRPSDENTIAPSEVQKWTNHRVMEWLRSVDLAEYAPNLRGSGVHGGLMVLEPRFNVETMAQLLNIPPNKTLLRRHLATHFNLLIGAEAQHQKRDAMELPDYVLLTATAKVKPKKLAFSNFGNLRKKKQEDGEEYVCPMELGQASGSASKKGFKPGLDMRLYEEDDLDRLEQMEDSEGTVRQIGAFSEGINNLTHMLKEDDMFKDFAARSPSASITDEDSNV

Consider 36 targets from the supplement of paper PMC12067093, “Discovery and optimisation of a covalent ligand for TRIM25 and its application to targeted protein ubiquitination” (Chemical Science, 2025).
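Note: competitive chemoproteomic profiling in live THP-1 cells with an iodoacetamide desthiobiotin (IA-DTB) probe, comparing probe-labelled peptide intensities in compound-treated cells against DMSO-treated controls.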

Compound in the experiment: CC1Cc2ccccc2N1C(=O)C1CCCN(C1)C(=O)CCl (mixture of isomers) [TRIM25 ligand 11 (diastereomer mixture)]
The experiment can be described thus: probe-labelled cysteine peptide fold change vs DMSO (competition) (log2 fold change); higher = less target engagement (more negative = stronger competition). The following applies: 10 µM; THP-1; incubation time: 4 h.
For the target “POLR1D_P0DPB6_39_HCVTFVLHEEDHTLGNSLR (UniProt P0DPB6)”, the “probe-labelled cysteine peptide fold change” value was -0.0236.
The same measure for “POLDIP3_Q9BY77_301+303_VTEEDIVELFCVCGALK (UniProt Q9BY77)”: 0.0734.
As for “POLG_P54098_647_LPTGTTLESAGVVCPYR (UniProt P54098)”, the “probe-labelled cysteine peptide fold change” value came to 0.0247.
On to “POR_P16435_363_HPFPCPTSYR (UniProt P16435)”, for which the “probe-labelled cysteine peptide fold change” value is 0.0172.
On to “POLR3B_Q9NW08_145_SSNCVLTGK (UniProt Q9NW08)”, for which the “probe-labelled cysteine peptide fold change” value was -0.0376.
The same measure for “PPA1_Q15181_123_HTGCCGDNDPIDVCEIGSK (UniProt Q15181)”: -0.0217; for “POLE_Q07864_2221_LMAFTLQDLVCLK (UniProt Q07864)”: 0.137.
With “POMGNT1_Q8WZA1_254_TDVPLSSAEEAECHWADTELNRR (UniProt Q8WZA1)”, the “probe-labelled cysteine peptide fold change” value was 0.0477.
The same measure for “POLR2B_P30876_892_RDCSTFLR (UniProt P30876)”: 0.0325; for “POLA1_P09884_584_AAPKPPFQSHFCVVSKPK (UniProt P09884)”: -0.23; for “PPFIBP1_Q86W92_140_IRDLEFCLEEHR (UniProt Q86W92)”: 0.00494.
Regarding “POLRMT_O00411_925_ASDPAAYVSHLPVHQDGSCNGLQHYAALGR (UniProt O00411)”, the “probe-labelled cysteine peptide fold change” value turned out to be 0.0376.
The same measure for “POLR1A_O95602_746_EGELLCGVLDK (UniProt O95602)”: 0.0815; for “POR_P16435_434_HILAILQDCPSLRPPIDHLCELLPR (UniProt P16435)”: -0.137; for “POLRMT_O00411_705_TVEGATQHQELLETCPPTALHGALDALTQLGNCAWR (UniProt O00411)”: 0.048.
The same measure for “POLR3B_Q9NW08_1054_LGEMERDCLIGYGASMLLLER (UniProt Q9NW08)”: 0.0847; for “POLE_Q07864_600_HALEEEEKVPVEQVTNFEEVCDEIK (UniProt Q07864)”: -0.466.
The same measure for “PPFIBP1_Q86W92_140_DLEFCLEEHREK (UniProt Q86W92)”: 0.00184; for “POTEF_A5A3E0_917_LCYVALDFEQEMATVASSSSLEK (UniProt A5A3E0)”: 0.271.
Consider “PPA1_Q15181_270+274_AIVDALPPPCESACTVPTDVDK (UniProt Q15181)”, for which the “probe-labelled cysteine peptide fold change” value was 0.00395.
For the target “PPIB_P23284_202_DVIIADCGK (UniProt P23284)”, the “probe-labelled cysteine peptide fold change” value turned out to be 0.00473.
The same measure for “POLR2A_P24928_451_HMCDGDIVIFNR (UniProt P24928)”: -0.0844.
With “POLR2B_P30876_622_ICRPLLIVEK (UniProt P30876)”, the “probe-labelled cysteine peptide fold change” value is -0.0338.
The same measure for “PPA1_Q15181_114_HTGCCGDNDPIDVCEIGSK (UniProt Q15181)”: 0.0448; for “POLRMT_O00411_178_QMAGCLEDCTR (UniProt O00411)”: -0.187; for “POLD3_Q15054_129_SNLQNCSK (UniProt Q15054)”: -0.11.
The same measure for “PPCDC_Q96CD2_7_ASCPAAAPLMER (UniProt Q96CD2)”: -0.208; for “PNP_P00491_31_HRPQVAIICGSGLGGLTDK (UniProt P00491)”: 0.00797; for “POLR2D_O15514_99+104_FELACLANLCPETAEESK (UniProt O15514)”: 0.0524.
The same measure for POMP_Q9Y244_37_KGFSCVK (UniProt Q9Y244): -0.314; for “POMGNT1_Q8WZA1_562_NPCEDSFLPDTEGHTYVAFIR (UniProt Q8WZA1)”: 0.214.
Take “POLD1_P28340_319_VLSFDIECAGRK (UniProt P28340)”: the “probe-labelled cysteine peptide fold change” value is -0.212.
Take “POLDIP3_Q9BY77_346_CNLHMNGNVITSDQPILLR (UniProt Q9BY77)”: the “probe-labelled cysteine peptide fold change” value amounted to 0.0111.
Consider “POTEJ_P0CG39_880_LCYVALDFEQEMAMVASSSSLEK (UniProt P0CG39)”, for which the “probe-labelled cysteine peptide fold change” value was 0.0549.
Turning to “PPID_Q08752_282_LQPIALSCVLNIGACK (UniProt Q08752)”, the “probe-labelled cysteine peptide fold change” value is -0.05.
The same measure for “POP1_Q99575_252_CLLQDLSYYCCLELK (UniProt Q99575)”: -0.0485.
